Experimental data reported in the supplement of paper PMC12067093, “Discovery and optimisation of a covalent ligand for TRIM25 and its application to targeted protein ubiquitination” (Chemical Science, 2025).
Some of the results follow.

Protein sequences, listed by entry. Tags and fused reporters are not part of them. Lines headed by an entry give the natural chain unless they say otherwise; changes in a name come on top.
UniProt Q9BV20: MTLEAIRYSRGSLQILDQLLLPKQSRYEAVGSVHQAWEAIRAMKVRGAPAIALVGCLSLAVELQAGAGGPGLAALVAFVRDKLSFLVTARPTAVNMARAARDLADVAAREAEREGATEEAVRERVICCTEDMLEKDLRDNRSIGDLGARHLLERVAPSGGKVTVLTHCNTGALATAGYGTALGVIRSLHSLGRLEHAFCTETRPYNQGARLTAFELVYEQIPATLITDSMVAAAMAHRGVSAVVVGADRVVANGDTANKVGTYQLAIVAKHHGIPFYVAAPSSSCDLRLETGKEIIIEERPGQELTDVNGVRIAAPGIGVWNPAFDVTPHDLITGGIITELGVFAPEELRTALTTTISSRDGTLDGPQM
UniProt P46013: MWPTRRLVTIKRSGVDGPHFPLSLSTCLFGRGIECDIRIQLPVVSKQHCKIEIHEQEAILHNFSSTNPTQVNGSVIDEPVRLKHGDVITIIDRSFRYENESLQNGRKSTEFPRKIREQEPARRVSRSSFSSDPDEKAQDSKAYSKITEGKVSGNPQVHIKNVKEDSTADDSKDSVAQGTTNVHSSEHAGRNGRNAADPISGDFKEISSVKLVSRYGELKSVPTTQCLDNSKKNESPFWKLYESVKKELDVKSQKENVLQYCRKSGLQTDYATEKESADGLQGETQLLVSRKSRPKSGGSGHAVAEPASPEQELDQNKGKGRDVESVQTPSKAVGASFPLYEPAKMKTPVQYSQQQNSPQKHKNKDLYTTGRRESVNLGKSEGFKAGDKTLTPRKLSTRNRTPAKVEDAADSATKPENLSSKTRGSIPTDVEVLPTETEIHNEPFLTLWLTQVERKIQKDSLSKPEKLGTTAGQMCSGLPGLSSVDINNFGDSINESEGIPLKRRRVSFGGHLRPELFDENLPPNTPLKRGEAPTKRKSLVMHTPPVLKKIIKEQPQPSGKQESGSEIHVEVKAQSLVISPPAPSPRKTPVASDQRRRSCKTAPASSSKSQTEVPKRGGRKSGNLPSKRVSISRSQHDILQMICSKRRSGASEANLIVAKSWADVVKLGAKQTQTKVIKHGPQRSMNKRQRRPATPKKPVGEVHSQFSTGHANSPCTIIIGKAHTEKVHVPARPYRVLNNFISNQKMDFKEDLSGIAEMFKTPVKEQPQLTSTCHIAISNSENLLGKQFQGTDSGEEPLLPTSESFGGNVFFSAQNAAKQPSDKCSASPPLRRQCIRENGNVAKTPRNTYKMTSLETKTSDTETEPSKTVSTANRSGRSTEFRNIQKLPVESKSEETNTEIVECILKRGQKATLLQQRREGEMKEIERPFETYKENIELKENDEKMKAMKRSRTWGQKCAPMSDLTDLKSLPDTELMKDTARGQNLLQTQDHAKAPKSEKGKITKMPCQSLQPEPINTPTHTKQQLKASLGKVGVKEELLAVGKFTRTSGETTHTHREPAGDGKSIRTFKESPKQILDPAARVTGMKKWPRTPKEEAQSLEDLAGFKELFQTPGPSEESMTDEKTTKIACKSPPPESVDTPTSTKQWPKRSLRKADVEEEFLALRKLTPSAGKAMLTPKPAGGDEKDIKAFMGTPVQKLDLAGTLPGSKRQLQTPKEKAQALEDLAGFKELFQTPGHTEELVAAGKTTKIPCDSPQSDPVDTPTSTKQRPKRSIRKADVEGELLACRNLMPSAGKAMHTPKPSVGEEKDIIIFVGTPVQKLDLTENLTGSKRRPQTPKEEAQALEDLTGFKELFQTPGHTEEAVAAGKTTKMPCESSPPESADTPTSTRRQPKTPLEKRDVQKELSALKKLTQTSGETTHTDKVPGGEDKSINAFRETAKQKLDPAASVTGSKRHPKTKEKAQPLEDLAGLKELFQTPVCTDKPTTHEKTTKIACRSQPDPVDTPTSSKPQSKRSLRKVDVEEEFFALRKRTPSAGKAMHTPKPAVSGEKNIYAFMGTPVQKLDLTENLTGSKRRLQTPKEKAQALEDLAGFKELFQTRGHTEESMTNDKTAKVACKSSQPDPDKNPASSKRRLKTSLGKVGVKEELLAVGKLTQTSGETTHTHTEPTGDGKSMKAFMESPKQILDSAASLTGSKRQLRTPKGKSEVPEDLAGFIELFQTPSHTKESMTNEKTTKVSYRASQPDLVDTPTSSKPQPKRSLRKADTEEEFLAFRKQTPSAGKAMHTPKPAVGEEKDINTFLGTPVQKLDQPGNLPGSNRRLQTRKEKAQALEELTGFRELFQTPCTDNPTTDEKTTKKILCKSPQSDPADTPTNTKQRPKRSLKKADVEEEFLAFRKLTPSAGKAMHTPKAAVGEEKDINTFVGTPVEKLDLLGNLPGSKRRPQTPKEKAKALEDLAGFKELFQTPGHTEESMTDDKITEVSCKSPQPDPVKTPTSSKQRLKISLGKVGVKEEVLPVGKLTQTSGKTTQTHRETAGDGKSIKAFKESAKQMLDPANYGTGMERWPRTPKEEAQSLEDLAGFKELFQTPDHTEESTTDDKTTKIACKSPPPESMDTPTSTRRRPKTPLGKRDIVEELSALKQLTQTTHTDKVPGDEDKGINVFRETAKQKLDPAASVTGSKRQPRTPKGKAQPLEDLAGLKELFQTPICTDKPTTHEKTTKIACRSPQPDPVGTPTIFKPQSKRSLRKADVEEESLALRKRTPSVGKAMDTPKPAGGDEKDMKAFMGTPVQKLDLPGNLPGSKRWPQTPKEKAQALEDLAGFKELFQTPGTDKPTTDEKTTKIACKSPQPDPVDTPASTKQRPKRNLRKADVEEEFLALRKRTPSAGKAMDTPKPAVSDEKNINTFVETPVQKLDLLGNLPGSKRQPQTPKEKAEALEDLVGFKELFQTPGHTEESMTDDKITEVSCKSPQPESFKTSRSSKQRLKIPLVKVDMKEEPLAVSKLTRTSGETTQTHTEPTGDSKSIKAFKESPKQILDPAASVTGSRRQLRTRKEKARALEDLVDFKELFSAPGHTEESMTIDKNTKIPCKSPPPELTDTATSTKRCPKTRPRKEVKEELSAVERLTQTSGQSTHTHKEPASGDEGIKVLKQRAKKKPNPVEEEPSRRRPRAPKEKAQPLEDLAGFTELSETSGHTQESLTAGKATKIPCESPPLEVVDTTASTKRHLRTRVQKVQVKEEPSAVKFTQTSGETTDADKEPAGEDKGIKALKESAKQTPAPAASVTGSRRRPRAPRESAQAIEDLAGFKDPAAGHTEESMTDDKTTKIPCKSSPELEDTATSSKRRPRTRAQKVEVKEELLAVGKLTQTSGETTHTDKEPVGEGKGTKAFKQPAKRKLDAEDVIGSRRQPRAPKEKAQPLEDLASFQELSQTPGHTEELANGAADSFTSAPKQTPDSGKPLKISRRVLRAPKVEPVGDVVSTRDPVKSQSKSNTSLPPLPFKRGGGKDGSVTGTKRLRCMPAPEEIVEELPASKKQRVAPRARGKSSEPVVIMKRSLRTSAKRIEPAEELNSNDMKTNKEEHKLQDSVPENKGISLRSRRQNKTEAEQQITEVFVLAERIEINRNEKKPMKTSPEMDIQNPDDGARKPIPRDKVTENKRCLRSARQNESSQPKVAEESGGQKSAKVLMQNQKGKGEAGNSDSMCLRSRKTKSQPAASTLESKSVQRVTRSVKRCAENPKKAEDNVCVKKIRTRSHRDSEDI
UniProt Q8WV92, whole entry, looked up: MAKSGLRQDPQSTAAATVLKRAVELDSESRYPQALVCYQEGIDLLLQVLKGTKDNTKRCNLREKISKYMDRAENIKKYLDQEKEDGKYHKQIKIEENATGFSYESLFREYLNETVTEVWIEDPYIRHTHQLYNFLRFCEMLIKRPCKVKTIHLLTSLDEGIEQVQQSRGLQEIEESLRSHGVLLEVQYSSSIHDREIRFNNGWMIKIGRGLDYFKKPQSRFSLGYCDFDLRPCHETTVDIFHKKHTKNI
UniProt Q8NB16: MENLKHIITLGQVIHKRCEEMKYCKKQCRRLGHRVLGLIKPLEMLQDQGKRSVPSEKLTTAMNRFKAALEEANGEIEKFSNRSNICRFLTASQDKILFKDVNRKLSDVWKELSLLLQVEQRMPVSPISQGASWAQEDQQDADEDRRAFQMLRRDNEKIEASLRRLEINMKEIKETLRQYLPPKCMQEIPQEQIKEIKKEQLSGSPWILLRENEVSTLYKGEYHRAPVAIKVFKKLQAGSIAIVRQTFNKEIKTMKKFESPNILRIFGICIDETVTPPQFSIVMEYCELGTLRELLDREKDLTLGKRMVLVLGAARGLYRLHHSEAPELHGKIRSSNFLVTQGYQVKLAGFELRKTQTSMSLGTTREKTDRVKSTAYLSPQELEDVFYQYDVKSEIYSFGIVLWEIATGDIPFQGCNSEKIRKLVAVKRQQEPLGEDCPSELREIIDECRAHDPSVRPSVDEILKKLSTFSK
UniProt Q03111: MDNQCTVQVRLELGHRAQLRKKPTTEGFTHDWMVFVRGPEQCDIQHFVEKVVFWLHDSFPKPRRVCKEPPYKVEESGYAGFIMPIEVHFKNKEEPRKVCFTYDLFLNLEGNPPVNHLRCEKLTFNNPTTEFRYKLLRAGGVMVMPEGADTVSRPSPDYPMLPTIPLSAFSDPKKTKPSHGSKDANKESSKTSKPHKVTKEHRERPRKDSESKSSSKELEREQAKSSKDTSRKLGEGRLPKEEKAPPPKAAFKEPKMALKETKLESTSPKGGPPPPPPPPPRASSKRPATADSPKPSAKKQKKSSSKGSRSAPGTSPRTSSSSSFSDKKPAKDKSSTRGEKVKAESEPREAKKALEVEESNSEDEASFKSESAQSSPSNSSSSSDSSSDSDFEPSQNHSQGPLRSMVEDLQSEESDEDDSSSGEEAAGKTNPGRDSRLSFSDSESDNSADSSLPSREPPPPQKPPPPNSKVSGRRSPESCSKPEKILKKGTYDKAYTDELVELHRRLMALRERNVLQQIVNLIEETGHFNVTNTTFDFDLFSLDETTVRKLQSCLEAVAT
UniProt P39210: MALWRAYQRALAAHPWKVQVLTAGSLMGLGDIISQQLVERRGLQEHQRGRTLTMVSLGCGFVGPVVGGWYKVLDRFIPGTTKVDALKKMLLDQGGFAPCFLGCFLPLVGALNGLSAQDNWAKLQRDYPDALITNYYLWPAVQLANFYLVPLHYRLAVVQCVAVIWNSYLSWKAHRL
UniProt Q96T76: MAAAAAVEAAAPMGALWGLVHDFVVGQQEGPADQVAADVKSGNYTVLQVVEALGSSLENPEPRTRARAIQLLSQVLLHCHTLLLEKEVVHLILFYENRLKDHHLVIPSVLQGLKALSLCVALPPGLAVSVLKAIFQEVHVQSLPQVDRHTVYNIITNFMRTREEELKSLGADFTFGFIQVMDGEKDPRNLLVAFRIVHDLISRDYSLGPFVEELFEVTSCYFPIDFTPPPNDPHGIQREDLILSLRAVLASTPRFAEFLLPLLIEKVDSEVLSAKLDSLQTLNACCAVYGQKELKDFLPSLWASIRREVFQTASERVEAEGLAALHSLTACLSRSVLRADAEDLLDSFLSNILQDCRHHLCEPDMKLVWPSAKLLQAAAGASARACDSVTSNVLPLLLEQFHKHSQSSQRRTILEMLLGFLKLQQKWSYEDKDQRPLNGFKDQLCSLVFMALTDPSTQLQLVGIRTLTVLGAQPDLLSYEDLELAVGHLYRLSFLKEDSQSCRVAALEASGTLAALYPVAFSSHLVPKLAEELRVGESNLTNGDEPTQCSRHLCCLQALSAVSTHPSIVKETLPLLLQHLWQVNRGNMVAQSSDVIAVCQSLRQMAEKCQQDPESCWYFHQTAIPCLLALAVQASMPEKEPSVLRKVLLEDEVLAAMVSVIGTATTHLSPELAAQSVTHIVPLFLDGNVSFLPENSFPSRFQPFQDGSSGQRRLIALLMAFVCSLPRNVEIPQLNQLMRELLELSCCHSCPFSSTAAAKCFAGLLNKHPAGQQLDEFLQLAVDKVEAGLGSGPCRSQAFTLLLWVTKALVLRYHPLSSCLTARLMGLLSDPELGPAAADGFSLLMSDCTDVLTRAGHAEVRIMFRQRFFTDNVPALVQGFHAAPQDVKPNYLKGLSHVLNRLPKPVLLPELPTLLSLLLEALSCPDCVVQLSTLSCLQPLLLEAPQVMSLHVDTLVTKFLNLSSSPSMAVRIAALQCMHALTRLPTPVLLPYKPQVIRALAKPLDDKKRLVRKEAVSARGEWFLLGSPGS
UniProt P34949: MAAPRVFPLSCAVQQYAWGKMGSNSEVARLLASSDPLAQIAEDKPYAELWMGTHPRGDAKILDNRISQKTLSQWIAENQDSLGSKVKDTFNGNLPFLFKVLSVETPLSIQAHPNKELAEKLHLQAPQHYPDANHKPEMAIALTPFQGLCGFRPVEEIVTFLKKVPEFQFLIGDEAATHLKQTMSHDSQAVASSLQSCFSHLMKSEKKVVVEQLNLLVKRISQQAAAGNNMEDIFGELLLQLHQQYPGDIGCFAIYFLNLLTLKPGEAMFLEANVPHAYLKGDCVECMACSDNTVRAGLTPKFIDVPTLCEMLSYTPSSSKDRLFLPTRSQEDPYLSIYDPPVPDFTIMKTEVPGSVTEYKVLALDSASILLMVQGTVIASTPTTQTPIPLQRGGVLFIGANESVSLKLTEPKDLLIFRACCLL

Compound: CC1Cc2ccccc2N1C(=O)C1CCCN(C1)C(=O)CCl (mixture of isomers) [TRIM25 ligand 11 (diastereomer mixture)]
Test: probe-labelled cysteine peptide fold change vs DMSO (competition) (log2 fold change); higher = less target engagement (more negative = stronger competition)
Settings: THP-1, incubation time: 4 h
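Note: competitive chemoproteomic profiling in live THP-1 cells with an iodoacetamide desthiobiotin (IA-DTB) probe, comparing probe-labelled peptide intensities in compound-treated cells against DMSO-treated controls.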

| Target | probe-labelled cysteine peptide fold change (10 µM) | probe-labelled cysteine peptide fold change (50 µM) |
| --- | --- | --- |
| MMAA_Q8IVH4_100_ACLAEAITLVESTHSR (UniProt Q8IVH4) | 0.0656 | 0.0204 |
| MRI1_Q9BV20_199_LEHAFCTETRPYNQGAR (UniProt Q9BV20) | 0.00492 | -0.0616 |
| MINPP1_Q9UNW1_337_SSCTLFQDIFQHLDK (UniProt Q9UNW1) | 0.226 | 0.154 |
| MKI67_P46013_1981_ITEVSCK (UniProt P46013) | -0.0568 | -0.02 |
| MITD1_Q8WV92_233_FSLGYCDFDLRPCHETTVDIFHKK (UniProt Q8WV92) | -0.179 | -0.197 |
| MITD1_Q8WV92_226_FSLGYCDFDLRPCHETTVDIFHK (UniProt Q8WV92) | 0.0671 | 0.022 |
| MLKL_Q8NB16_437_QQEPLGEDCPSELR (UniProt Q8NB16) | 0.0359 | -0.184 |
| MRPL45_Q9BRJ2_168_LHTLVTEHCFPDMTWDIK (UniProt Q9BRJ2) | 0.296 | 0.136 |
| MLLT1_Q03111_42_GPEQCDIQHFVEK (UniProt Q03111) | 0.0642 | 0.127 |
| MPV17_P39210_59_TLTMVSLGCGFVGPVVGGWYK (UniProt P39210) | -0.119 | 0.00545 |
| MMS19_Q96T76_760_CFAGLLNK (UniProt Q96T76) | -0.0555 | 0.03 |
| MINK1_Q8N4C8_269_FIDFIDTCLIK (UniProt Q8N4C8) | 0.068 | 0.162 |
| MPI_P34949_289_GDCVECMACSDNTVR (UniProt P34949) | 0.104 | 0.117 |

In another format: results already given
Target	probe-labelled cysteine peptide fold change (10 µM)	probe-labelled cysteine peptide fold change (50 µM)
MKI67_P46013_1981_ITEVSCK (UniProt P46013)	-0.0568	-0.02
MITD1_Q8WV92_233_FSLGYCDFDLRPCHETTVDIFHKK (UniProt Q8WV92)	-0.179	-0.197
MITD1_Q8WV92_226_FSLGYCDFDLRPCHETTVDIFHK (UniProt Q8WV92)	0.0671	0.022
MLKL_Q8NB16_437_QQEPLGEDCPSELR (UniProt Q8NB16)	0.0359	-0.184
